Measurements: US8765809B2, “Ester derivative and use thereof” (Ajinomoto Co., Inc., priority 2006, dated 2014)
Some results were stated once for a whole list of compounds, not compound by compound.

Test: Stability of compound: recovery rate (isolation yield) after contact with silica gel (PTLC)
Format: physicochemical
Settings: isolation and purification by PTLC
Experimental: As mentioned above, the reaction yields of the compounds of respective Examples were determined by applying the products obtained by a condensation reaction to PTLC and stirring the silica gel containing the object compound with ethyl acetate for 30 min, followed by filtration and concentration under reduced pressure. Since the condensation reaction proceeds at a conversion rate of not less than 90% for all compounds, the recovery rate (yield) of each compound is considered to reflect stability upon contact of the compound with the silica gel.
Using vanillyl alcohol (1.70 g, 11.0 mmol) instead of homovanillyl alcohol, and n-decanoic acid (1.72 g, 10 mmol) instead of 8-methylnonanoic acid in Example 1, similar reaction was performed. The residue was purified by PTLC to find that the yield of the obtained vanillyl decanoate was 1.33 g (4.31 mmol, 43.1%), and vanillyl decanoate was decomposed (i.e., unstabilized) by the contact with silica gel.

Stability upon contact with silica gel, good isolation yields:
COc1cc(CCOC(=O)CCCCCC(C)C)ccc1O [compound I-1, homovanillyl 7-methyloctanoate]
COc1cc(CCOC(=O)CCCCC(C)C)ccc1O [compound I-2, homovanillyl 6-methylheptanoate]
COc1cc(CCOC(=O)CCCC(C)C)ccc1O [compound I-3, homovanillyl 5-methylhexanoate]
COc1cc(CCCOC(=O)CCCCCCC(C)C)ccc1O [compound J, 3-(3-methoxy-4-hydroxyphenyl)propyl 8-methylnonanoate]
COc1cc(CCCOC(=O)CCCCCC(C)C)ccc1O [compound J-1, 3-(3-methoxy-4-hydroxyphenyl)propyl 7-methyloctanoate]
COc1cc(CCCOC(=O)CCCCC(C)C)ccc1O [compound J-2, 3-(3-methoxy-4-hydroxyphenyl)propyl 6-methylheptanoate]
COc1cc(CCCOC(=O)CCCC(C)C)ccc1O [compound J-3, 3-(3-methoxy-4-hydroxyphenyl)propyl 5-methylhexanoate]
COc1cc(CCCOC(=O)CCC(C)C)ccc1O [compound J-4, 3-(3-methoxy-4-hydroxyphenyl)propyl 4-methylpentanoate]
CCCCCC(=O)OCCCc1ccc(O)c(OC)c1 [compound J-5, 3-(3-methoxy-4-hydroxyphenyl)propyl n-hexanoate]
COc1cc(CC(=O)OCCCCCCCC(C)C)ccc1O [compound K, 8-methylnonyl homovanillate]
COc1cc(CC(=O)OCCCCCCC(C)C)ccc1O [compound K-1, 7-methyloctyl homovanillate]
CC[C@H](C)CCCCCOC(=O)Cc1ccc(O)c(OC)c1 [compound K-2, (S)-(+)-6-methyloctyl homovanillate]
COc1cc(CC(=O)OCCCCCC(C)C)ccc1O [compound K-3, 6-methylheptyl homovanillate]
COc1cc(CCC(=O)OCCCCCCCC(C)C)ccc1O [compound L, 8-methylnonyl 3-(4-hydroxy-3-methoxyphenyl)propionate]
COc1cc(CCC(=O)OCCCCCCC(C)C)ccc1O [compound L-1, 7-methyloctyl 3-(4-hydroxy-3-methoxyphenyl)propionate]
COc1cc(CCC(=O)OCCCCCC(C)C)ccc1O [compound L-2, 6-methylheptyl 3-(4-hydroxy-3-methoxyphenyl)propionate]
COc1cc(CCC(=O)OCCCCC(C)C)ccc1O [compound L-3, 5-methylhexyl 3-(4-hydroxy-3-methoxyphenyl)propionate]
CC[C@H](C)CCCCCOC(=O)CCc1ccc(O)c(OC)c1 [compound L-4, (S)-(+)-6-methyloctyl 3-(4-hydroxy-3-methoxyphenyl)propionate]
CCCCCCCCCCOC(=O)/C=C/c1ccc(O)c(OC)c1 [compound Q, n-decanyl ferulate]
COc1cc(/C=C/C(=O)OCCCCCCCC(C)C)ccc1O [compound Q-1, 8-methylnonyl ferulate]
COc1cc(/C=C/C(=O)OCCCCCCC(C)C)ccc1O [compound Q-2, 7-methyloctyl ferulate]
COc1cc(/C=C/C(=O)OCCCCCC(C)C)ccc1O [compound Q-3, 6-methylheptyl ferulate]
